Measured values as given in patent US8691864B2, “Agents useful for reducing amyloid precursor protein and treating dementia and methods of use thereof” (priority 2000, dated 2014).
At least one structure is not confirmed: it was looked up by name or label, or the drawing left a doubt.

Legend:
APP = experiment: rate of APP synthesis in SH-SY5Y cells (35S labelling, immunoprecipitation); type: cell-based, human; conditions: 10 μM, 16 hours
Protocol: 8×10^6 SHSY-5Y cells were plated on 100 mm dishes with DMEM containing 10% FBS. After 36 hours, the culture medium was replaced with DMEM containing 0.5% FBS. The cells were incubated with low serum medium for 1 hour. Thereafter, the medium was replaced with fresh low serum medium with and without 10 μM of phenserine for 16 hours.
After treatment with methionine and cystine free medium, 2 ml of ^35S-labeled DMEM ([…]) with and without phenserine (10 μM) were added and incubated for 10 minutes. Thereafter, the labeled medium was carefully removed and the cells were suspended in lysis buffer containing with protease inhibitors and frozen at −80° C. for use in the immunoprecipitation assay.
APP protein was immunoprecipitated from 300 μig of total protein in each sample using the polyclonal antibody O443, which recognizes a 20 amino acid sequence in the carboxy terminal of APP, and protein A/G resin overnight at 4° C. Immunoprecipitated APP was eluted from the protein AJG resin with 30 μl of elution buffer (10% beta-mercaptoethanol). The samples were loaded onto 10% trys-glycine 10 gels, and the proteins were separated at 150 V for 90 min. The gels were fixed and dried at 80° C. for 60 min. The dried gels were exposed to Phosphor Screen (PACKARD Instrument Company, Inc., Meriden, Conn.) overnight and the βAPP signals were quantitated on a phosphor imager. […]

ERK½ [1] = experiment: phosphorylated ERK in SH-SY5Y cells, western blot; type: cell-based, human; conditions: 5 μM, 0.5-4 hours
Protocol: Fifteen μg of protein from each sample was mixed with the appropriate volume of 5× Laemmli buffer and boiled for 5 min at 100° C. The samples were loaded onto a 10% NuPAGE Bis-Tris gel in 1×NuPAGE MOPS SDS running buffer (NOVEX, San Diego, Calif.) and the proteins separated at 200 V for 45 min. The gels then were transferred onto nitrocellulose at 25 V for 1.5 h. The blots were blocked with 5% non-fat dry milk in 10 mM Tris, pH 8.0 containing 150 mM NaCl for 1 h and washed twice for 15 min in large volumes of TBST (10 mM Tris, pH 8.0, 150 mM NaCl and 0.05% Tween 20). […] Three final TBST washes of 20 min duration each were performed before the samples were detected by chemiluminescence and exposed to film, as per the manufacturer's instructions (Amersham Life Science Inc., Arlington Heights, Ill.). […] Densitometric quantification of blots was undertaken by using a […] and NIH-IMAGE (version 4.1).
SH-SY5Y cells were incubated with 5 μM (+)-phenserine or (−) phenserine for 0, 0.5, 1, 2 and 4 hours to determine the effect of the drug on βAPP protein levels. Western blots of cell lysates containing 15 μg of total protein per lane were analyzed. […] Stress activated transcription kinases, p38 and JNK, were not detected in the samples. […]

βAPP [2] = experiment: βAPP protein levels in U373 MG astrocytoma cells, western blot; type: cell-based
Protocol: SK-N-SH neuroblastoma cells were cultured on 60 mm dishes at a concentration of 3×10^6 cells, and SH-SY-5Y neuroblastoma and U373 astrocytorna cell lines were plated in 100 mm dishes at a concentration of 3×10^5 cells. The cells were allowed to grow in complete medium ([…], 2 mM glutamine in DMEM) for 3 to 4 days until they reached 70% confluence. To start the experiment, spent medium was removed and replaced with fresh medium (SKNSH—4 ml of DMEM+0.5% FBS; U373—5 ml of DMEM+2.5% FBS) containing 0, 5, or 50 μM phenserine. The cells were incubated at 37° C., 5% CO2 for the specific times indicated. Different media and sera were purchased from Life Technologies (Gaithersberg, Md.). […]
(§1) At each time point, the spent medium was collected and stored at −70° C. for later analysis of secretory βAPP levels. The cells were washed twice with PBS, pH 7.4 and incubated on ice for 15 min for lysis with 100 μL of lysis buffer (20 mM HEPES, 2 mM EGTA, 50 mM (β-glycophosphate, 1 mM sodium orthovanadate, 1% Triton X-100, 10% glycerol) containing appropriate protease inhibitors (2 mM PMSF, 100 μg/mL aprotinin, 25 μM leupeptin and 20 μg/mL soybean trypsin inhibitor). Each lysate was microcentrifuged for 15 min at 14 000 rpm. Protein levels of the supernatant were analyzed by the Bradford protein assay (BioRad, Melville, N.Y.). […]

βAPP [3] = experiment: βAPP protein levels in pSV2 (APP) CAT transfected U373 cells, western blot; type: cell-based; conditions: 0, 0.25, 0.5 and 1 hour
ERK½ [4] = experiment: phosphorylated ERK in U373 MG cells, western blot; type: cell-based; conditions: 50 μM, 0-48 hours
βAPP [5] = experiment: βAPP levels in SK-N-SH cells (conditioned media and cell lysates), western blot; type: cell-based, human
Protocol: (§2) SK-N-SH neuroblastoma cells were cultured on 60 mm dishes at a concentration of 3×10^6 cells, and SH-SY-5Y neuroblastoma and U373 astrocytorna cell lines were plated in 100 mm dishes at a concentration of 3×10^5 cells. The cells were allowed to grow in complete medium ([…], 2 mM glutamine in DMEM) for 3 to 4 days until they reached 70% confluence. To start the experiment, spent medium was removed and replaced with fresh medium (SKNSH—4 ml of DMEM+0.5% FBS; U373—5 ml of DMEM+2.5% FBS) containing 0, 5, or 50 μM phenserine. The cells were incubated at 37° C., 5% CO2 for the specific times indicated. Different media and sera were purchased from Life Technologies (Gaithersberg, Md.).
as §1

[6] = rodents; Greig et al., 1995; Patel et al., 1998; cited from earlier work
βAPP [7] = experiment: βAPP protein levels in SH-SY5Y cell lysates, western blot; type: cell-based, human; conditions: 5 μM, 0.5, 1, 2 and 4 hours
Protocol: as §2, §1

βAPP-mRNA = experiment: northern blot of βAPP mRNA in U373 cells; type: cell-based; conditions: U373, up to 48 hours
βAPP [8] = conditions: naive animals; Haroutunian et al., 1997; cited from earlier work
cholinesterase = conditions: Greig et al., 1995; Brossi et al., 1996; cited from earlier work
APP mRNA = experiment: steady state APP mRNA levels in SH-SY5Y cells; type: cell-based, human; conditions: 10 μM (FIG. 11B)

SMILES: CN1CC[C@@]2(C)c3cc(OC(=O)Nc4ccccc4)ccc3N(C)[C@@H]12 [(−)-phenserine]
- TCA precipitable counts (APP): without changing
- ERK½ (phosphorylated) detection (ERK½ [1]): peaked at the 30 minute to 1 hour period
- pattern of βAPP levels after pretreatment with ERK inhibitor PD98059 (βAPP [2]; 25 nM PD98059 for 16 hours before drug): remained largely similar
- βAPP levels, time course (βAPP [2]; 50 μM, 0-48 hours): gradually decreased between 1 and 8 hours of treatment
- βAPP levels in pSV2 (APP) CAT transfected astrocytomas (βAPP [3]): gradually approached levels seen in untransfected and untreated cells
- activation of ERK½ (ERK½ [4]): peaked at the 30 minute time point
- βAPP levels in conditioned media and cell lysates (βAPP [5]; SK-N-SH, 0.5, 5 and 50 μM, 4, 8 and 16 hours): reduced in a time- and concentration-dependent manner
- steady state levels of extra- and intracellular βAPP (βAPP [5]; SK-N-SH, 0.5, 5 or 50 μM, 4, 8 and 16 hrs (FIGS. 12A and B)): significantly decreased
- cognitive performance [6]: dramatically improves
- βAPP levels in the cell lysates (βAPP [7]): slowly decreased at each time point
- steady state levels of βAPP-mRNA (βAPP-mRNA): does not affect
- βAPP production (βAPP [8]): reduce βAPP production
- anti-cholinesterase activity (cholinesterase): potent enzymatic activity
- levels of APP RNA (APP mRNA): did not alter
